Structures are written as SMILES.

Series [1] is described as follows: Evaluation by trained and/or certified flavor or fragrance chemists or master perfumers; categorization by commercial prospect. As to conditions: for Rating: category of commercial prospect, (A) highest > (B) > (C) > (D) lowest, (E) requires further study; for Rating (category of commercial prospect): evaluation by trained flavor or fragrance chemists or master perfumers.

Series [2] has as its system odor evaluation panel. The experiment in a line: Odor evaluation panel rating of odorants by Rate-All-That-Apply (RATA) method with 55-word odor lexicon, plus intensity and pleasantness. More on the design: species or system human. Conditions: for Floral: mean panelist score for odor label floral (RATA); for Fruity: mean panelist score for odor label fruity (RATA); for Spicy: mean panelist score for odor label spicy (RATA); for Sweet: mean panelist score for odor label sweet (RATA); for Pleasantness: mean panelist score for odor pleasantness.

For `Cc1csc(C(=O)O)c1` [Compound 450, 4-methylthiophene-2-carboxylic acid], in series [1], the Rating result is given as “(D)”. In addition, in series [2], the Floral is 0, the Fruity came out at 0, the Spicy is recorded as 0.938 and the Sweet is on record as 0.344. Besides, the Pleasantness in series [2] is listed as 3.059.

Regarding `CC(C)Sc1ccccc1` [Compound 211, propan-2-ylsulfanylbenzene], in series [1], the Rating result was “(D)”. Besides, in series [2], the Floral came to 1.25, the Fruity is given as 0.125, the Spicy was 0.156 and the Sweet is reported as 0.844. For the same compound, in series [2], the Pleasantness stood at 4.553.

Take `CCOC(=O)C1CC(=O)C1` [Compound 482, ethyl 3-oxocyclobutane-1-carboxylate]: the Rating result in series [1] is recorded as “(A)”. For the same compound, in series [2], the Floral is recorded as 0.333, the Fruity amounted to 1.361, the Spicy stood at 0 and the Sweet was 1.167.

Turning to `CCN1CCCC1CN` (centres unmarked) [Compound 971, (1-ethylpyrrolidin-2-yl)methanamine], in series [1], the “Rating (category of commercial prospect)” value is recorded as “(D)”. Further, in series [2], the Floral was 0.062, the Fruity came out at 0, the Spicy was 0.125 and the Sweet is listed as 0. Besides, the Pleasantness in series [2] came out at 4.106.

Take `C=CCC1CCCCC1=O` (centres unmarked) [Compound 613, 2-prop-2-enylcyclohexan-1-one]: in series [1], the “Rating (category of commercial prospect)” value is listed as “(A)”. In addition, in series [2], the Floral amounted to 0.062, the Fruity was 0.094, the Spicy is listed as 0 and the Sweet is recorded as 1.125. For the same compound, the Pleasantness in series [2] stood at 5.119.

On to `N#CCSc1ccccc1` [Compound 527, 2-phenylsulfanylacetonitrile], for which, in series [1], the Rating result was “(D)”. For the same compound, in series [2], the Floral is listed as 0.088, the Fruity stood at 0, the Spicy is 0.294 and the Sweet is given as 0.412. Moreover, the Pleasantness in series [2] is 4.382.

With `c1ccc(-n2cccn2)cc1` [Compound 163, 1-phenylpyrazole], in series [1], the Rating result is given as “(D)”. Besides, in series [2], the Floral worked out at 0.265, the Fruity is on record as 0.176, the Spicy came out at 0.176 and the Sweet is listed as 0.559. Further, in series [2], the Pleasantness amounted to 4.597.

For the compound `CNCc1cccc2ccccc12` [Compound 554, N-methyl-1-naphthalen-1-ylmethanamine], in series [1], the Rating result is recorded as “(D)”. Also, in series [2], the Floral was found to be 0.171, the Fruity was 0, the Spicy is listed as 0.114 and the Sweet was 0.086. Also, the Pleasantness in series [2] is given as 3.817.

For the compound `CC(C)(C)c1cccc(C(C)(C)C)n1` [Compound 332, 2,6-ditert-butylpyridine], the Rating result in series [1] is reported as “(B)”. Further, in series [2], the Floral was 0.207, the Fruity was found to be 0.793, the Spicy was 0.517 and the Sweet turned out to be 0.759. Moreover, the Pleasantness in series [2] was found to be 4.421.

In the case of `Cc1ccc(C#N)c(C)c1` [Compound 14, 2,4-dimethylbenzonitrile], in series [1], the Rating entry is listed as “(D)”. Besides, in series [2], the Floral came out at 0.97, the Fruity is 0.364, the Spicy turned out to be 0.818 and the Sweet turned out to be 1.242. For the same compound, the Pleasantness in series [2] turned out to be 6.121.

On to `CC(O)C1CC1` (centres unmarked) [Compound 6, 1-cyclopropylethanol], for which the Rating result in series [1] was “(D)”. In series [2], the Floral is 0.056, the Fruity is given as 0.056, the Spicy is 0 and the Sweet is on record as 0.278.

On to `CC(C)CCN(CCC(C)C)CCC(C)C` [Compound 563, 3-methyl-N,N-bis(3-methylbutyl)butan-1-amine], for which, in series [1], the “Rating (category of commercial prospect)” value is given as “(D)”. In addition, in series [2], the Floral is reported as 0.438, the Fruity is 1.062, the Spicy is 0 and the Sweet is 1.031. Moreover, the Pleasantness in series [2] worked out at 4.159.

For the compound `CSCC(=O)O` [Compound 927, 2-methylsulfanylacetic acid], the “Rating (category of commercial prospect)” value in series [1] was “(D)”. For the same compound, in series [2], the Floral came to 0, the Fruity is 0.156, the Spicy is recorded as 0.281 and the Sweet is 0. The Pleasantness in series [2] came out at 3.194.

As to `O=Cc1cc2ccccc2s1` [Compound 445, 1-benzothiophene-2-carbaldehyde], in series [1], the Rating result is listed as “(D)”. For the same compound, in series [2], the Floral came out at 0.694, the Fruity is listed as 2.472, the Spicy is 0.361 and the Sweet turned out to be 1.694.

For the compound `OCC1CC2C=CC1C2` (centres unmarked) [Compound 736, 2-bicyclo[2.2.1]hept-5-enylmethanol], the “Rating (category of commercial prospect)” value in series [1] is recorded as “(A)”. Moreover, in series [2], the Floral is reported as 0.188, the Fruity is reported as 0.25, the Spicy is given as 0.031 and the Sweet is 0.812. Also, the Pleasantness in series [2] worked out at 4.669.

Consider `CCCCC(=O)NN` [Compound 432, pentanehydrazide], for which the Rating entry in series [1] was “(C)”. Besides, in series [2], the Floral is recorded as 0.094, the Fruity amounted to 0.094, the Spicy is listed as 0.031 and the Sweet is on record as 0. Also, the Pleasantness in series [2] came out at 3.522.

Take `C1=CCCCCCC1` [Compound 232, cyclooctene]: the Rating entry in series [1] is on record as “(A)”. Further, in series [2], the Floral is recorded as 0.219, the Fruity is on record as 0.219, the Spicy is given as 0.281 and the Sweet amounted to 0.531. The Pleasantness in series [2] worked out at 5.053.

For `CCC(C)(C)c1ccccc1` [Compound 982, 2-methylbutan-2-ylbenzene], the “Rating (category of commercial prospect)” value in series [1] was “(C)”. Also, in series [2], the Floral worked out at 0.097, the Fruity is reported as 0.032, the Spicy was determined as 0.613 and the Sweet is recorded as 0.323. The Pleasantness in series [2] stood at 4.955.

As for `O=C(O)CC1CC1` [Compound 642, 2-cyclopropylacetic acid], the “Rating (category of commercial prospect)” value in series [1] is “(D)”. For the same compound, in series [2], the Floral was found to be 0, the Fruity was 0.75, the Spicy was 0.125 and the Sweet is given as 1.219. In series [2], the Pleasantness is 4.525.

Regarding `CCc1nnc(N)s1` [Compound 889, 5-ethyl-1,3,4-thiadiazol-2-amine], in series [1], the “Rating (category of commercial prospect)” value is “(D)”. In series [2], the Floral was 0.156, the Fruity was 0.281, the Spicy is listed as 0.344 and the Sweet stood at 0.312. In addition, in series [2], the Pleasantness is 3.534.

On to `CC(C)COC(=O)CC#N` [Compound 38, 2-methylpropyl 2-cyanoacetate], for which, in series [1], the Rating result is on record as “(D)”. Moreover, in series [2], the Floral is reported as 0.5, the Fruity is given as 0.722, the Spicy came to 0.028 and the Sweet was determined as 0.944.

`O=C1C2CC3CC1CC(O)(C3)C2` [Compound 64, 5-hydroxyadamantan-2-one]: in series [1], the Rating result was “(D)”. Also, in series [2], the Floral was 0, the Fruity is on record as 0.028, the Spicy is reported as 0.056 and the Sweet stood at 0.

Turning to `CCC(=O)CC(=O)OC` [Compound 822, methyl 3-oxopentanoate], in series [1], the “Rating (category of commercial prospect)” value is recorded as “(D)”. In addition, in series [2], the Floral is given as 0.222, the Fruity amounted to 0.417, the Spicy is 0.194 and the Sweet came to 1.222.

Turning to `c1ccc(-n2cccc2)cc1` [Compound 595, 1-phenylpyrrole], the “Rating (category of commercial prospect)” value in series [1] is given as “(D)”. Besides, in series [2], the Floral turned out to be 0.333, the Fruity is on record as 0.111, the Spicy worked out at 0.028 and the Sweet was 0.333.

Consider `N#CCC(=O)c1ccccc1` [Compound 964, 3-oxo-3-phenylpropanenitrile], for which the “Rating (category of commercial prospect)” value in series [1] is reported as “(D)”. Besides, in series [2], the Floral is listed as 0.188, the Fruity was 0.031, the Spicy came out at 0.312 and the Sweet was found to be 0.781. Besides, the Pleasantness in series [2] was found to be 5.256.

As for `CC(C)(C)OC(=O)NCCCCCCN` [Compound 324, tert-butyl N-(6-aminohexyl)carbamate], in series [1], the Rating result was “(D)”. Also, in series [2], the Floral came out at 0.389, the Fruity stood at 0.139, the Spicy was 0.056 and the Sweet was found to be 0.139.

As to `c1ccc(C2CCCCC2)cc1` [Compound 109, cyclohexylbenzene], the Rating result in series [1] is “(B)”. Moreover, in series [2], the Floral was 0.778, the Fruity is 0.333, the Spicy turned out to be 0.278 and the Sweet is listed as 0.556.

For `N#CCCCN1CCCC1` [Compound 944, 4-pyrrolidin-1-ylbutanenitrile], in series [1], the “Rating (category of commercial prospect)” value is reported as “(D)”. Moreover, in series [2], the Floral came to 0.312, the Fruity was determined as 0, the Spicy was found to be 0.125 and the Sweet was 0. Also, the Pleasantness in series [2] is 4.259.

As for `CC(C)(C)OC(=O)c1ccc(N)cc1` [Compound 931, tert-butyl 4-aminobenzoate], the “Rating (category of commercial prospect)” value in series [1] is “(D)”. Further, in series [2], the Floral is on record as 0.111, the Fruity is on record as 0.056, the Spicy stood at 0 and the Sweet was found to be 0.111.

(Values after patent publication US20250075147A1, “FRAGRANCE AND FLAVOR COMPOSITIONS COMPRISING NEW FLAVOR AND FRAGRANCE INGREDIENTS” (priority 2023, published 2025).)
